Measurements taken from patent US20210024651A1.
Results are given in words; binding and its absence hold for the method and conditions named. Some results given as binding are weak or reduced against the parent protein; the word gives no strength. Blank lines part the entries; values can stand above or below the binder they belong to.

Amino acid sequences for entries named in this document (tags omitted). A change or cut given only in a name is not applied to a line headed by its entry. Chains listed by the source or under a name are the forms on record and can include a tag or linker. Residues count along the entry.
UniProt P21860: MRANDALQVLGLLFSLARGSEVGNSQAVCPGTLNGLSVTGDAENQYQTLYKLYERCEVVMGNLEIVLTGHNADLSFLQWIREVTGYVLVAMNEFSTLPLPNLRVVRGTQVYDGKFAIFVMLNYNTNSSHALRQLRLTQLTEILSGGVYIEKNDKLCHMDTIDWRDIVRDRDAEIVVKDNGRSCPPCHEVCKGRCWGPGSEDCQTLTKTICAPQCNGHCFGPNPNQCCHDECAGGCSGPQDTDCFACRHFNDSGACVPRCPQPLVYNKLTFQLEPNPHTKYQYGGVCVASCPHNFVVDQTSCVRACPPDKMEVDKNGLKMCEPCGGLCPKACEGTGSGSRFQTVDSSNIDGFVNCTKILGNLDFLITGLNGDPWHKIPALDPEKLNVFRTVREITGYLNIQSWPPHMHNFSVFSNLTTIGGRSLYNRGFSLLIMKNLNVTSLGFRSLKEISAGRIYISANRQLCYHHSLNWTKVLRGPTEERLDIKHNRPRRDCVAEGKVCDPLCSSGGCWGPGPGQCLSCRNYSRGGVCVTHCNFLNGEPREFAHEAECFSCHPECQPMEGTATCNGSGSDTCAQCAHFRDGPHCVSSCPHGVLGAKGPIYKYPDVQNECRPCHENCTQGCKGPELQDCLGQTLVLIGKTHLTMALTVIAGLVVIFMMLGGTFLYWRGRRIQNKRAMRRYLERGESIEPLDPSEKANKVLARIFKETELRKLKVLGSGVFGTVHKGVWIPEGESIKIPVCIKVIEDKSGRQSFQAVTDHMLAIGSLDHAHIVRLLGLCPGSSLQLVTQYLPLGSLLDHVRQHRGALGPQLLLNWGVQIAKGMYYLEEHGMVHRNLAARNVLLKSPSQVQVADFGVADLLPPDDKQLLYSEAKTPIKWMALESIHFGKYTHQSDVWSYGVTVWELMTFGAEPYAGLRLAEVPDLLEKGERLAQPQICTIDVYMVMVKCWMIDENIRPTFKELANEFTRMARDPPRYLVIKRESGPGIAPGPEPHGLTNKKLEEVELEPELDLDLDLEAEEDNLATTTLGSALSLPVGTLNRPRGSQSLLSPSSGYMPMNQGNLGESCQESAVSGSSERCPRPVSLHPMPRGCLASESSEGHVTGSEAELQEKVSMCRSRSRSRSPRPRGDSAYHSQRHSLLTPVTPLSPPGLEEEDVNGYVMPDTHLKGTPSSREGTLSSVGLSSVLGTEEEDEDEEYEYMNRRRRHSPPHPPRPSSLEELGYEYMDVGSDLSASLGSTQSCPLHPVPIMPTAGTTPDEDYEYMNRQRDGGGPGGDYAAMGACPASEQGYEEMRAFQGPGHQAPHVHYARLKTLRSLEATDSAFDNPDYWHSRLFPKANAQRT
cynomolgus macaque HER3 (G7PIG5, form named): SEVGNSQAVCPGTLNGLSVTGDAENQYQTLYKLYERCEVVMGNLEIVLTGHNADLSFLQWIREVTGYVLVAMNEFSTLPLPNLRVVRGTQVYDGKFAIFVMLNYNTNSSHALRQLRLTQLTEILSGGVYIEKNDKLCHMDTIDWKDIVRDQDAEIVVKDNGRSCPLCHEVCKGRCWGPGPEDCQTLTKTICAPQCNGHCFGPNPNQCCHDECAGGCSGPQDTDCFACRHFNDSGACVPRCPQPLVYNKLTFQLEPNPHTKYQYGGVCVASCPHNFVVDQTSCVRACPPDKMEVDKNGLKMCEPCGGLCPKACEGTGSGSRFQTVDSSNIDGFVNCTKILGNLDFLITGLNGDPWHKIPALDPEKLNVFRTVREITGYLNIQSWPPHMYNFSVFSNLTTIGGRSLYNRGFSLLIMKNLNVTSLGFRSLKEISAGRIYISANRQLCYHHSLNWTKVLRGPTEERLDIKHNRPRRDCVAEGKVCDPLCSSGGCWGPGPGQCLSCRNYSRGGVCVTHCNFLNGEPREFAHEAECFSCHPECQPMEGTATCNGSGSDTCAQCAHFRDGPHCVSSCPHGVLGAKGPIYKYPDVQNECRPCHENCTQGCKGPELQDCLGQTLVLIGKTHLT
UniProt Q61526, residues 20-641: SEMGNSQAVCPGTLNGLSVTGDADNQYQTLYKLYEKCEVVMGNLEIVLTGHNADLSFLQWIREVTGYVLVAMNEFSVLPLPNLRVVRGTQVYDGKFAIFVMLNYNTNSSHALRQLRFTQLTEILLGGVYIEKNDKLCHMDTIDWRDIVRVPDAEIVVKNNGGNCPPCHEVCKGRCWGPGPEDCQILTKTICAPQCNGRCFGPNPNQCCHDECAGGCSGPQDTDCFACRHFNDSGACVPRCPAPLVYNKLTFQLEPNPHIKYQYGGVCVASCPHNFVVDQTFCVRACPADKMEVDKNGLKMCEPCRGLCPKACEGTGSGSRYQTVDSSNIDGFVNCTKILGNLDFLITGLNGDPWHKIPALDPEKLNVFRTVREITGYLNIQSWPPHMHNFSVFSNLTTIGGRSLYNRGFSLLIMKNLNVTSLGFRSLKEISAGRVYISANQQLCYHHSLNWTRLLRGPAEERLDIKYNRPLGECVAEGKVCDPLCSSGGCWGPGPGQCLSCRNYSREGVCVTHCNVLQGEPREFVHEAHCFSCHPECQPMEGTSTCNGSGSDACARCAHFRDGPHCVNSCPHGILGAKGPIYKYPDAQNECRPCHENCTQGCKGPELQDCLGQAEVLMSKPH
UniProt Q62799, residues 20-643: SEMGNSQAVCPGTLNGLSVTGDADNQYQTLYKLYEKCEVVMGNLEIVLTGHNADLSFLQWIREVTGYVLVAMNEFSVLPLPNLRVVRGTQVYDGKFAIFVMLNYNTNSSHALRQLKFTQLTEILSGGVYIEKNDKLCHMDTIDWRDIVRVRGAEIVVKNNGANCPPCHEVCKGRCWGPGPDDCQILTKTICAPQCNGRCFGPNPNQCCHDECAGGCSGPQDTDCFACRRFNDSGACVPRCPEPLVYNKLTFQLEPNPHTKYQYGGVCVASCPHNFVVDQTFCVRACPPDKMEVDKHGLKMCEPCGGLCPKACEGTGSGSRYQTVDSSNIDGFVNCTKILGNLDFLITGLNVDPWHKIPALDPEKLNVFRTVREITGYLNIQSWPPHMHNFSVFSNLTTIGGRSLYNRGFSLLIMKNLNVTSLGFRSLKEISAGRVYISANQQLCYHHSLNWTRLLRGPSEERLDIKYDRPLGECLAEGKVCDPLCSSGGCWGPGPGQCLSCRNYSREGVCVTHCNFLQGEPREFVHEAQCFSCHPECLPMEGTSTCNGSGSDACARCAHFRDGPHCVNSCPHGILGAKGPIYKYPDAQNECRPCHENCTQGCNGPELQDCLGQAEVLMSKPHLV

Tests used:
[1] = target: His-tagged human HER3 (recombinant human HER3 polypeptide) (human) (UniProt P21860); assay: ELISA, plate-coated human HER3
[2] = target: His-tagged human HER3 (recombinant human HER3 polypeptide) (human) (UniProt P21860); assay: BLI (Octet QK384), antibody on AHC tips, His-tagged human HER3 in solution
[3] = target: cynomolgus macaque HER3 (cynomolgus macaque) (UniProt G7PIG5); assay: ELISA, plate-coated target, antibody titrated from 10 µg/ml
[4] = target: human HER3 expressed on cells (human) (UniProt P21860); assay: flow cytometry on HEK293 cells overexpressing human HER3, 20 µg/ml antibody
[5] = target: human HER2 (human) (UniProt P04626); assay: ELISA, plate-coated target, antibody titrated from 10 µg/ml
[6] = target: mouse HER3 (mouse) (UniProt Q61526); assay: as above
[7] = target: rat HER3 (rat) (UniProt Q62799); assay: as above
[8] = target: human EGFR (human) (UniProt P00533); assay: as above

binding [1]: binds | binding [2]: binds
B1: anti-HER3 clone 10D1_c85o2 IgG1 (antibody, V domains shown)
VH: DVQLQEWGAGLLKPSETLSLTCAVTGYSITSGYSWHWIRQFPGKGLEWIGSIRYSGGTNYNPSLKSRITISRDTSKNQFSLKLGSVTAADTAVYFCARGTTAPRYPFDYWGQGTLVTVSS
VL: DIVMTQSPSSLSASVGDRVTITCKASQIVGSNVAWYQQKPGKSPKPLIYSARYQYSGVPFRFSGSGSGTDFTLTISSLQPEDVATYYCQQYSSHPLTFGPGTKVEIKR

binding [3]: binds
B2: 10D1F.FcA (anti-HER3 clone 10D1_c89 IgG1) (antibody, V domains shown)
VH: QVQLQESGPGLVKPSQTLSLTCTVSGYSITSGYSWHWIRQHPGKGLEWIGSIRYSGGTDYNPSLKSLVTISADTSKNQFSLKLSSVTAADTAVYYCARMTTAPWYPFDYWGQGTTVTVSS
VL: DIQMTQSPSSVSASVGDRVTITCKASQIVGSNVAWYQQKPGKAPEPLIYSASYLYSGVPSRFSGSGSGTDFTLTISSLQPEDFATYYCQQYSSHPLTFGQGTKLEIKR

binding [3]: binds
B3: anti-HER3 clone 4-35-B2 IgG1 (antibody, V domains shown)
VH: EIQLQQSGPELVKPGASVKVSCKASGYSFTDYNMYWVKQSHGKSLEWIGHINPYNGGTTYNQKFKGRATLTVDKSSSTAFMHLNSLTSEDSAVYFCVSLRWGAMDYWGQGTSVTVSS
VL: QIVLTQSPALMSASPGEKVTMTCSASSSVSYMYWYQQKPRSSPKPWIYLTSNLASGVPARFSGSGSGTSYSLTISSMEAEDAATYYCQQWNSNPYTFGGGTKLEIKR

binding [4]: binds | binding [5]: binds | binding [3]: binds | binding [6]: binds | binding [7]: binds | binding [8]: binds
B4: anti-HER3 clone 4-35-B4 IgG1 (antibody, V domains shown)
VH: EVQLQQSGAELVKPGASVKLSCTASGFNIKDTYIHWVKQRPDQGLEWIGKIIDPANGNTNYDPKFQGKATITADTSSNTAYLQLSSLSSEDTAVYFCARGLHWGQGTTLTVSS
VL: DIVLTQSPASLAVSLGQRATISCRASKSVSTSGYSYMHWYQQKPGQPPKLLIYLASNLESGVPARFSGSGSGTDFTLNIHPVEEEDAATYYCQHSRELPYTFGGGTKLEIKR
